From PubChem BioAssay AID493014 (National Center for Advancing Translational Sciences (NCATS), 2011)
Some of the results follow. These are further read-outs of the screen, such as a control signal, another cell line or another target. No call is given for them. Compounds called inactive in the main read-out are mostly missing here. The note in brackets gives the kind of curve behind each potency; many fits are weak.

Assay: qHTS Assay to Find Inhibitors of Chronic Active B-Cell Receptor Signaling
Conditions: ABC-DLBCL IkBa-CBG/CBR reporter, luminescence ratio (green luciferase fused to IkBa over red control in TMD8 lymphoma cells), 4 h
Source text: NIH Molecular Libraries Probe Production Network [MLPCN] NIH Chemical Genomics Center [NCGC] MLPCN Grant: 1 R03 DA031086-01A1 PI Name: Dr. R. Eric Davis NCGC Assay Overview: Diffuse large B-cell lymphoma (DLBCL) is the most common category of non-Hodgkin lymphoma, with ~20,000 new cases per year in the United States. DLBCL should be regarded as a collection of different neoplasms. Microarray gene expression analysis has defined two principal types of DLBCL, named for their similarity to normal B cell stages or activation states: a germinal center B-cell (GCB) type, and an activated B-cell (ABC) type. In ABC-DLBCL, a constitutive high-level activity of the NF-kappaB family of transcription factors has been observed (1) and NF-kappaB target genes are more highly expressed in ABC primary tumors than in GCB tumors. Functional studies have shown a constitutive high-level activity of the IkappaB (inhibitor of kappa-B) kinase (IKK) complex. […] Further analysis of DLBCL primary tumors for NF-kappaB target gene expression imply that although CARD11 is required for constitutive IKK activity in all ABC-DLBCL lines, mutations in CARD11 may be the root cause of IKK activation only in lines or tumors with such mutations. In other words, CARD11 mutations may explain NF-kappaB activation in only 10% of ABC-DLBCL cases. […] This process has been termed 'chronic active BCR signaling' (CABS). The goal of this screen is to find small-molecule inhibitors of the CABS pathway found in ABC-DLBCL lines using a cell-based assay that measures IkappaBalpa stability, which has already been extensively validated in the OCI-Ly3 line (PubChem AID:445; REF: 4). […] The assay uses green (CBG68) and red (CBR) emitting beetle luciferases [Chroma-GloTM developed by Promega Corp.] where the green luciferase is fused to IkappaBalpha and the red luciferase is present in its native state. Both luciferase genes are stably present in the TMD8 human ABC DLBCL cell line, but their expression is under the control of tetracycline-inducible promoters. Following the addition of doxycycline to induce expression of the luciferases, the green luminescence in control cultures rises only slowly because the CBG fusion partner IkappaBalpha is targeted by IKK activity for rapid degradation. In contrast, green luminescence rises rapidly in the presence of proteasome inhibitors or IKK inhibitors. The rise in red luminescence of CBR is not affected by proteasome or IKK inhibitors, and serves as normalization for cell number and nonspecific effects. Compounds were screened as a concentration-titration series that ranged from 46 uM to 3 nM.
NCGC Assay Protocol Summary: Cells were seeded in 1536-well plates at 5000 cells/4uL in IMDM medium containing 0.5% FBS, w/o phenol red, 1% penicillin/streptomycin. Then, 23 nL of compounds or DMSO were delivered to each well using a pin tool. One uL 20ng/ml doxycycline was then dispensed into white solid 1536-well plates and the plates were incubated at 37C/5% C02 in a cell incubator for 4 hrs. Then 4 uL luminescent substrate mix (in-house prepared: 150 mM Tris-Cl, pH 7.6, 3 mM MgCl2, 1% Triton X-100, 5 mM DTT, 0.2 mM CoA, 0.15 mM ATP, 5 mM D-luciferin, final concentrations) was added to each well. The plate was incubated at r.t. for 10-15 min. The plates were measured on a ViewLux plate reader for green luminescence (540/20 nm filter) and red luminescence (618/8 nm filter). The green and red luminescent signals were corrected for red and green luminescence filter overlap using previously determined filter calibration constants (determined using the procedure outlined in the Promega Technical Manual; REF 4). The %Activity was determined from the ratio of corrected green/red luminescent values. MG132 were used as control. […] Red luminescent %Activity was normalized to the difference between red luminesence in basal cells (0%Activity) and zero luminescence (-100% Activity). […]

[1] = measured here: CBR red luminescence, cell number
[2] = measured here: IkBa-CBG green luminescence

Row | Compound | AC50 [1] | AC50 [2]
1 | COC(=O)c1cccc(NC(=O)c2ccccc2)c1 | 8.91 µM [falling, single point] | –
2 | CCn1c(SCC(=O)Nc2cc(OC)c(OC)c(OC)c2)nnc1-c1cccs1 | 35.5 µM [falling, single point] | –
3 | N#Cc1cc2ccc(N3CCOCC3)cc2cc1C#N | 6.51 µM [rising, full curve, poor fit] | –
4 | COCCN(CC(=O)Nc1cccc(C)c1C)C(=O)C1(c2ccc(Cl)cc2)CCC1 | 8.2 µM [falling, single point] | –
5 | COc1ccc2ccccc2c1-c1sc(Nc2ccccc2)n[n+]1-c1ccc(F)cc1 | 35.5 µM [falling, single point] | –
6 | CCN(CC)CCCC(C)Nc1c2ccc(Cl)cc2nc2ccc(OC)cc12 (stereo not drawn) | 11.2 µM [falling, partial curve, poor fit] | –
7 | COC(=O)c1[nH]c2ccc(C)cc2c1NC(=O)CN1CCCc2ccccc21 | 29.1 µM [falling, single point] | –
8 | CCOC(=O)CNC(c1ccccc1)c1cc(Br)ccc1NC(=O)CCN1CCOCC1 (stereo not drawn) | 5.17 µM [falling, full curve] | –
9 | COc1ccc(/C(C)=N/Nc2nccnc2Cl)cc1 | 29.1 µM [falling, single point] | –
10 | COc1ccc(C2=CC(=O)N(Nc3ccccc3)C2=O)cc1 | 11.2 µM [falling, partial curve, poor fit] | –
11 | CC1CCCCC1NC(=S)Nc1ccc(SC(F)F)cc1 (stereo not drawn) | 16.4 µM [falling, single point] | –
12 | CCN1/C(=C2\C(=O)N(C)C(=S)N2c2ccccc2)C=Cc2ccccc21 | 31.6 µM [rising, single point] | –
13 | CCN1C(=O)/C(=C2\SC(=S)N(NC(=O)c3ccccc3O)C2=O)c2ccccc21 | 15.8 µM [falling, single point] | –
14 | Clc1ccc2nc(COc3ccccc3)[nH]c2c1 | 11.2 µM [falling, partial curve] | –
15 | COc1ccc(Cl)cc1NC(=S)N(Cc1cccnc1)Cc1ccco1 | 35.5 µM [falling, single point] | –
16 | Cc1ccc(SCc2cn3ccccc3n2)cc1 | 25.1 µM [falling, single point] | –
17 | C/C=C/c1ccc(OCc2cc(=O)n3cc(C)ccc3n2)c(OC)c1 | 1.26 µM [falling, partial curve, poor fit] | –
18 | O=C(Nc1cccnc1)c1ccc(Cl)c(Cl)c1 | – | 35.5 µM [falling, partial curve, poor fit]
19 | COc1ccc(OCc2cc(C(=O)N3CCC(c4ccccc4)CC3)no2)c(Cl)c1 | 11.2 µM [falling, partial curve, poor fit] | –
20 | CC(/C=C/c1ccco1)=N\NC(=O)c1cc(C)[nH]n1 | 23.1 µM [falling, single point] | 25.9 µM [rising, partial curve, poor fit]

Row | Compound | AC50 [1] | AC50 [2]
21 | CC(C)N(Cc1cc2ccccc2[nH]c1=O)C(=O)c1cccc([N+](=O)[O-])c1 | 35.5 µM [rising, single point] | –
22 | O=C(NC(=S)Nc1ccc2c(c1)OCCO2)c1ccccc1 | 5.01 µM [falling, full curve] | –
23 | CCCCC[C@H](O)/C=C/[C@H]1CCC(=O)[C@@H]1CCCCCCC(=O)N1CCCCC1CO (stereo partly drawn) | – | 0.501 µM [falling, full curve, poor fit]
24 | CC(C)COc1ccc(C(=O)N2C(=O)c3ccc(N)cc3C2=O)cc1 | 12.6 µM [falling, partial curve, poor fit] | –
25 | Cc1cc(C)n(-c2ccc(C(=O)Nc3ccc(C)c(S(=O)(=O)N4CCOCC4)c3)cc2)n1 | 22.4 µM [falling, single point] | –
26 | CCOC(=O)c1[nH]c(C)c(C(=O)OCC(=O)N(C)C2CCS(=O)(=O)C2)c1C (stereo not drawn) | 14.1 µM [falling, partial curve] | –
27 | O=C(O)c1ccc(/C=C/c2nc3sc4c(c3c(=O)[nH]2)CCC4)cc1 | 1.26 µM [falling, full curve] | –
28 | CC(C)c1ccc(CNc2ccc3c(c2)ncn3C)cc1 | 0.708 µM [rising, full curve, poor fit] | –
29 | Cc1ncsc1C(=O)Nc1nc2c(s1)CC(C)CC2 (stereo not drawn) | 1.41 µM [falling, full curve] | –
30 | CCC(C)c1ccccc1NC(=O)c1cc2cccc([N+](=O)[O-])c2[nH]1 (stereo not drawn) | 17.8 µM [falling, single point] | –
31 | O=C(c1cccnc1)N1CCN(c2ccccc2Cl)CC1 | 35.5 µM [falling, single point] | –
32 | Cn1c(=O)[nH]c(=O)c2c1nc(Br)n2C/C=N/NC(N)=S | 35.5 µM [rising, single point] | 35.5 µM [falling, single point]
33 | COc1ccc(-c2cc(C3CC3)nc(N)c2C#N)cc1 | 35.5 µM [falling, single point] | –
34 | COc1ccc(/C(=N\Nc2ccccc2C(=O)O)c2ccccc2)cc1 | 7.94 µM [falling, partial curve] | –
35 | O=C(CCc1ccc(S(=O)(=O)NC2CCCCC2)cc1)N(Cc1ccccc1)Cc1ccccc1 | 7.94 µM [falling, partial curve, poor fit] | –
36 | C=CCn1c(COc2ccccc2F)nnc1SCC(=O)c1c[nH]c2ccccc12 | 20.6 µM [falling, single point] | 25.9 µM [rising, partial curve, poor fit]
37 | COc1ccc(CCNC(=S)NC(=O)c2ccc(Br)cc2)cc1OC | 2.24 µM [rising, partial curve, poor fit] | –
38 | O=C1C2C3C=CC(C4CC34)C2C(=O)N1/N=C/c1ccc(-c2ccc(F)cc2[N+](=O)[O-])o1 (stereo not drawn) | 2.59 µM [rising, single point] | –
39 | Cc1ccc(-c2nc(-c3ccccc3)no2)cc1 | 0.326 µM [rising, full curve, poor fit] | –
40 | COc1ccccc1-n1c(SCC(=O)NC2CCCCC2)nc2c(c1=O)SCC2 | 29.1 µM [falling, single point] | –
